PMC5014548
No constants are given. Whether binding was seen depends on the method and setting. Binding seen in cells or lysates may run through a third protein.

The chains behind the UniProt entries cited, without tags or fusion partners. Where a name states a change or a piece, a line headed by the entry shows the natural chain unless it says otherwise.
UniProt P25491, whole entry, looked up, stated change not applied: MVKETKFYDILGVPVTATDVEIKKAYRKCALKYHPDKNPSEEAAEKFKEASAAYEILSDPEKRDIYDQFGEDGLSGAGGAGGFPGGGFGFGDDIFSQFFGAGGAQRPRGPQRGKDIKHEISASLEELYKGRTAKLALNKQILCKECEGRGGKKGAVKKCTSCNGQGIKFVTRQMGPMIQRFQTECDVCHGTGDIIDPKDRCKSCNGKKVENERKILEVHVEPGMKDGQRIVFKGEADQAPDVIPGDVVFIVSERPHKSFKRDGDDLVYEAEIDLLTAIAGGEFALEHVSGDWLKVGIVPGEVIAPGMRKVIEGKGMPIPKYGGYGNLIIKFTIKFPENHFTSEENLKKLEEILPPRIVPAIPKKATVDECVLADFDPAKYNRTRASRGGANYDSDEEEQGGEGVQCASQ

Biological target: Ydj1p (SASQ), non-prenylatable Ydj1p mutant (S. cerevisiae) (UniProt P25491)
Assay: co-IP

PrD-GFP, Gln/Asn-rich prion domain of Rnq1p fused to GFP (from UniProt P25367) (domain or fragment)
binding: no binding
